Tested on: HLA molecules of primary tumor samples
Assay: Identification of tumor associated peptides presented on the cell surface (HLA immune precipitation, LC-MS)
Parameters: species or system human
Settings: for Peptide Presentation on cancer entities: entities on which the peptide was presented, CLL = chronic lymphocytic leukemia, AML = acute myeloid leukemia, CML = Chronic myeloid leukemia; for Peptide Presentation on tumor types: tumor entities on which the peptide was found presented (Table 8b)

Row | Substance | Peptide Presentation on cancer entities | Peptide Presentation on tumor types
1 | 132 (GELPAVRDL; listed as Homo sapiens) [compound 132] | CLL | CRC, GBC, GBM, GC, HCC, HNSCC, NHL, NSCLCadeno, NSCLCother, NSCLCsquam, OC, OSCAR, PACA
2 | 10 (YSDIGHLL; listed as Homo sapiens) [compound 10] | CLL | BRCA, CCC, GC, NHL, NSCLCadeno, NSCLCother, NSCLCsquam, OC, PACA, RCC, UEC
3 | 2 (TMIRIFHRY; listed as Homo sapiens) [compound 2] | AML | 
4 | 147 (KEVPRSYEL; listed as Homo sapiens) [compound 147] | CLL | HNSCC, NHL, NSCLCadeno, NSCLCsquam, OC, OSCAR, RCC
5 | 25 (YLNEKSLQL; listed as Homo sapiens) [compound 25] | AML, CML | BRCA, CCC, CRC, GEJC, HCC, MEL, NHL, NSCLCadeno, NSCLCother, NSCLCsquam, OC, PRCA, RCC, SCLC, UBC, UEC
6 | 224 (VYEYVVERF; listed as Homo sapiens) [compound 224] | CLL | BRCA, CCC, CRC, GBC, GBM, GC, GEJC, HCC, HNSCC, MEL, NHL, NSCLCadeno, NSCLCother, NSCLCsquam, OC, OSCAR, PACA, PRCA, RCC, SCLC, UBC, UEC
7 | 86 (IPASHPVL; listed as Homo sapiens) [compound 86] | CLL | GBC, MEL, NHL, NSCLCsquam, OSCAR, PACA, SCLC
8 | 41 (SVAHLLSKY; listed as Homo sapiens) [compound 41] | CLL | UEC
9 | 23 (FAFSGVLRA; listed as Homo sapiens) [compound 23] | AML | BRCA, CRC, GBC, GEJC, HCC, HNSCC, NHL, NSCLCadeno, NSCLCother, NSCLCsquam, OC, OSCAR, PRCA, SCLC, UBC, UEC
10 | 182 (AQNLSIIQY; listed as Homo sapiens) [compound 182] | CLL | BRCA, GBC, GC, HCC, MEL, NHL, NSCLCadeno, NSCLCother, NSCLCsquam, OSCAR, PRCA
11 | 265 (QEVDASIFKAW; listed as Homo sapiens) [compound 265] | CLL | BRCA, CCC, CRC, GBC, GC, HCC, HNSCC, MEL, NHL, NSCLCadeno, NSCLCother, NSCLCsquam, OC, OSCAR, PACA, PRCA, RCC, SCLC, UBC, UEC
12 | 272 (KEFELRSSW; listed as Homo sapiens) [compound 272] | CLL | BRCA, CRC, GC, HCC, HNSCC, MEL, NHL, NSCLCadeno, NSCLCsquam, OSCAR, PACA, PRCA, RCC, UEC
13 | 217 (TTVPHVFSK; listed as Homo sapiens) [compound 217] | CLL | BRCA, CCC, CRC, GBC, GC, HCC, MEL, NHL, NSCLCadeno, NSCLCother, NSCLCsquam, OC, OSCAR, PACA, PRCA, RCC, SCLC, UEC
14 | 31 (ATFNKLVSY; listed as Homo sapiens) [compound 31] | AML | CRC, SCLC, UBC
15 | 199 (AMPDSPAEV; listed as Homo sapiens) [compound 199] | AML | HNSCC, NHL, NSCLCadeno
16 | 85 (IPVSHPVL; listed as Homo sapiens) [compound 85] | CLL | NHL
17 | 221 (LLNRHILAH; listed as Homo sapiens) [compound 221] | CLL | MEL, UEC
18 | 127 (TEYPVFVY; listed as Homo sapiens) [compound 127] | AML | 
19 | 98 (YPIALTRAEM; listed as Homo sapiens) [compound 98] | CLL | BRCA, CCC, GBC, GC, HNSCC, MEL, NHL, NSCLCadeno, NSCLCother, NSCLCsquam, OC, OSCAR, PACA, PRCA, RCC, SCLC, UEC
20 | 97 (LPFGKIPIL; listed as Homo sapiens) [compound 97] | AML, CML | BRCA, CRC, GBC, GBM, GC, HCC, HNSCC, MEL, NHL, NSCLCadeno, NSCLCother, NSCLCsquam, OC, OSCAR, PACA, PRCA, RCC, SCLC, UBC, UEC
21 | 121 (RPKKVNTL; listed as Homo sapiens) [compound 121] | CLL | 
22 | 58 (KYLADLPTL; listed as Homo sapiens) [compound 58] | CLL | BRCA, CCC, CRC, GBC, GBM, GC, HCC, HNSCC, MEL, NHL, NSCLCadeno, NSCLCother, NSCLCsquam, OC, OSCAR, PRCA, RCC, SCLC, UEC
23 | 122 (KELPGVKKY; listed as Homo sapiens) [compound 122] | CLL | CCC, CRC, GC, HCC, NHL, NSCLCadeno, NSCLCsquam, OSCAR, PACA, RCC, UEC
24 | 39 (IVIQLRAQK; listed as Homo sapiens) [compound 39] | CLL | 
25 | 236 (RPSNKAPLL; listed as Homo sapiens) [compound 236] | CLL | 
26 | 173 (KEYDFGTQL; listed as Homo sapiens) [compound 173] | AML | 

Row | Substance | Peptide Presentation on cancer entities | Peptide Presentation on tumor types
27 | 40 (RSKEYIRKK; listed as Homo sapiens) [compound 40] | CLL | 
28 | 211 (ATYNKQPMYR; listed as Homo sapiens) [compound 211] | CML | CCC, CRC, GBC, GC, MEL, NHL, NSCLCadeno, NSCLCsquam, OC, OSCAR, RCC, SCLC, UEC
29 | 146 (SESKTVVTY; listed as Homo sapiens) [compound 146] | CLL | CRC, GC, HCC, HNSCC, MEL, NHL, NSCLCadeno, NSCLCsquam, OC, OSCAR, PACA, PRCA, RCC, SCLC, UBC, UEC
30 | 244 (MPSSDTTVTF; listed as Homo sapiens) [compound 244] | CLL | BRCA, CCC, CRC, GBC, GBM, GC, HCC, HNSCC, MEL, NHL, NSCLCadeno, NSCLCother, NSCLCsquam, OC, OSCAR, PACA, PRCA, RCC, SCLC, UBC, UEC
31 | 28 (VILESIFLK; listed as Homo sapiens) [compound 28] | CLL | GBC, NHL, NSCLCadeno, NSCLCother, NSCLCsquam, OC, OSCAR, PRCA, UEC
32 | 241 (APAPAEKTPV; listed as Homo sapiens) [compound 241] | CLL | BRCA, CRC, GBC, GBM, GC, HNSCC, MEL, NHL, NSCLCadeno, NSCLCsquam, OC, OSCAR, PACA, PRCA, SCLC, UBC, UEC
33 | 192 (RSDPGGGGLAY; listed as Homo sapiens) [compound 192] | AML | BRCA, CRC, GBC, GBM, GC, GEJC, HCC, HNSCC, MEL, NHL, NSCLCadeno, NSCLCother, NSCLCsquam, OC, OSCAR, PACA, PRCA, SCLC, UBC, UEC
34 | 212 (LLWHWDTTQSLK; listed as Homo sapiens) [compound 212] | CLL | 
35 | 135 (NEIKVYITF; listed as Homo sapiens) [compound 135] | AML, CML | BRCA, CRC, HNSCC, NSCLCadeno, NSCLCsquam, PRCA, RCC
36 | 218 (RVLTGVFTK; listed as Homo sapiens) [compound 218] | CLL | NHL
37 | 238 (SPRSWIQVQI; listed as Homo sapiens) [compound 238] | CLL | BRCA, CRC, GBC, HNSCC, MEL, NHL, NSCLCadeno, NSCLCother, NSCLCsquam, OC, OSCAR, PACA, RCC, SCLC, UEC
38 | 129 (GEGAYGKVF; listed as Homo sapiens) [compound 129] | AML | HCC, HNSCC, NSCLCadeno, OC, OSCAR, RCC
39 | 116 (TLKIRAEVL; listed as Homo sapiens) [compound 116] | CLL | CCC, HNSCC, MEL, NHL, NSCLCadeno, NSCLCother, NSCLCsquam, OC, OSCAR, PRCA, SCLC
40 | 260 (AEIGEGAYGKVF; listed as Homo sapiens) [compound 260] | AML | BRCA, CCC, CRC, GBM, HCC, HNSCC, MEL, NHL, NSCLCadeno, NSCLCother, NSCLCsquam, OC, OSCAR, PACA, PRCA, UBC, UEC
41 | 194 (YTDKKSIIY; listed as Homo sapiens) [compound 194] | CLL | 
42 | 262 (QENQAETHAW; listed as Homo sapiens) [compound 262] | CLL | NHL
43 | 160 (EEETILHFF; listed as Homo sapiens) [compound 160] | CLL | NHL
44 | 189 (VTEEPQRLFY; listed as Homo sapiens) [compound 189] | CLL | BRCA, CCC, GBC, GC, HCC, HNSCC, MEL, NHL, NSCLCadeno, NSCLCother, NSCLCsquam, OC, OSCAR, PACA, PRCA, SCLC, UBC, UEC
45 | 81 (SESPWLHAPSL; listed as Homo sapiens) [compound 81] | CLL | 
46 | 24 (KLGPVAVSI; listed as Homo sapiens) [compound 24] | CLL | HCC, HNSCC, NHL, NSCLCsquam, OSCAR, PRCA
47 | 164 (SEYSHLTRV; listed as Homo sapiens) [compound 164] | AML | RCC
48 | 210 (RMYSQLKTLQK; listed as Homo sapiens) [compound 210] | CLL | MEL, NHL
49 | 117 (YIKTAKKL; listed as Homo sapiens) [compound 117] | CLL | 
50 | 198 (KLLGYDVHV; listed as Homo sapiens) [compound 198] | AML | BRCA, CRC, NHL, NSCLCother, OC, RCC, UEC
51 | 100 (YPYQERVFL; listed as Homo sapiens) [compound 100] | CML | NHL, NSCLCadeno, NSCLCsquam
52 | 219 (HSYSSPSTK; listed as Homo sapiens) [compound 219] | CLL | 

— US11135246B2, “Peptides and combination of peptides for use in immunotherapy against leukemias and other cancers” (Immatics Biotechnologies GmbH, priority 2017, dated 2021)
